No constants are given. Whether binding was seen depends on the method and setting. Binding seen in cells or lysates may run through a third protein. Some binding calls cover weakened binding; strength is not graded here. Where a sequence is shown, tags or fusion partners need not be part of it.
B1: MLO2-NLuc (natural protein)
chain: MADQVKERTLEETSTWAVAVVCFVLLFISIVLEHSIHKIGTWFKKKHKQALFEALEKVKAELMLLGFISLLLTIGQTPISNICISQKVASTMHPCSAAEEAKKYGKKDAGKKDDGDGDKPGRRLLLELAESYIHRRSLATKGYDKCAEKGKVAFVSAYGIHQLHIFIFVLAVVHVVYCIVTYAFGKIKMRTWKSWEEETKTIEYQYSNDPERFRFARDTSFGRRHLNFWSKTRVTLWIVCFFRQFFGSVTKVDYLALRHGFIMAHFAPGNESRFDFRKYIQRSLEKDFKTVVEISPVIWFVAVLFLLTNSYGLRSYLWLPFIPLVVILIVGTKLEVIITKLGLRIQEKGDVVRGAPVVQPGDDLFWFGKPRFILFLIHLVLFTNAFQLAFFAWSTYEFNLNNCFHESTADVVIRLVVGAVVQILCSYVTLPLYALVTQMGSKMKPTVFNDRVATALKKWHHTAKNETKHGRHSGSNTPFSSRPTTPTHGSSPIHLLHNFNNRSVENYPSSPSPRYSGHGHHEHQFWDPESQHQEAETSTHHSLAHESSEPVLASVELPPIRTSKSLRDFSFKK
B2: MLO6-NLuc (natural protein)
chain: MADQVKEKTLEETSTWAVAVVCFVLLLISIVIEKLIHKIGSWFKKKNKKALYEALEKVKAELMLMGFISLLLTIGQGYISNICIPKNIAASMHPCSASEEARKYGKKDVPKEDEEENLRRKLLQLVDSLIPRRSLATKGYDKCAEKGKVAFVSAYGMHQLHIFIFVLAVCHVIYCIVTYALGKTKMRRWKKWEEETKTIEYQYSHDPERFRFARDTSFGRRHLSFWSKSTITLWIVCFFRQFFRSVTKVDYLTLRHGFIMAHLAPGSDARFDFRKYIQRSLEEDFKTIVEINPVIWFIAVLFLLTNTNGLNSYLWLPFIPFIVILIVGTKLQVIITKLGLRIQEKGDVVKGTPLVQPGDHFFWFGRPRFILFLIHLVLFTNAFQLAFFVWSTYEFGLKNCFHESRVDVIIRISIGLLVQILCSYVTLPLYALVTQMGSKMKPTVFNERVATALKSWHHTAKKNIKHGRTSESTTPFSSRPTTPTHGSSPIHLLRNAPHKRSRSVDESFANSFSPRNSDFDSWDPESQHETAETSNSNHRSRFGEEESEKKFVSSSVELPPGPGQIRTQHEISTISLRDFSFKR
B3: MLO12-NLuc (natural protein)
chain: MAIKERSLEETPTWAVAVVCFVLLFISIMIEYFLHFIGHWFKKKHKKALSEALEKVKAELMLLGFISLLLVVLQTPVSEICIPRNIAATWHPCSNHQEIAKYGKDYIDDGRKILEDFDSNDFYSPRRNLATKGYDKCAEKGKVALVSAYGIHQLHIFIFVLAVFHVLYCIITYALGKTKMKKWKSWERETKTIEYQYANDPERFRFARDTSFGRRHLNIWSKSTFTLWITCFFRQFFGSVTKVDYLTLRHGFIMAHLPAGSAARFDFQKYIERSLEQDFTVVVGISPLIWCIAVLFILTNTHGWDSYLWLPFLPLIVILIVGAKLQMIISKLGLRIQEKGDVVKGAPVVEPGDDLFWFGRPRFILFLIHLVLFTNAFQLAFFVWSTYEFTLKNCFHHKTEDIAIRITMGVLIQVLCSYITLPLYALVTQMGTSMRPTIFNDRVANALKKWHHTAKKQTKHGHSGSNTPHSSRPTTPTHGMSPVHLLHNYNNRSLDQQTSFTASPSPPRFSDYSGQGHGHQHFFDPESQNHSYQREITDSEFSNSHHPQVDMASPVREEKEIVEHVKVDLSEFTFKK

Target: CLuc-CAM2 (A. thaliana CALMODULIN 2) (A. thaliana) (UniProt P0DH97)
Test: split reporter

Binder | binding
B1 | binds
B2 | binds
B3 | binds

From paper doi:10.1101/2022.12.30.521597 (bioRxiv, 2022)
